The text below walks through data of PubChem BioAssay AID328 (DTP/NCI, 2004).

In this experiment the test system is BDF1 mice, P388 leukemia ip, median survival T/C. Nature of the experiment: NCI In Vivo Anticancer Drug Screen. Data for tumor model P388 Leukemia (intraperitoneal) in B6D2F1 (BDF1) mice. The note with it: T/C endpoint: median survival time, higher T/C = longer survival. The essentials:
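Each value expresses how treatment altered survival: treated-mouse outcome over vehicle-mouse outcome, both groups bearing the transplanted tumour.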

[1] abbreviates: dose: 50.0 mg/kg/injection, schedule: Q01DX009 (ip), vehicle: saline.
[2] abbreviates: dose: 100.0 mg/kg/injection, schedule: Q01DX009 (ip), vehicle: saline.
Setting [3] is: dose: 200.0 mg/kg/injection, schedule: Q01DX009 (ip), vehicle: saline.

SMILES strings stand for the structures. The list shows only some results of the screen, not a fair sample: it is rich in T/C values a quarter to a half above the control, in often repeated tests (any T/C) and in doses without a T/C. Further doses and runs are listed elsewhere. T/C: endpoint of the treated group in % of that of the vehicle group. Some doses have a count of surviving animals in place of a T/C: the source files T/C as zero there, which appears to mark a toxic dose or a test without result, not a measured value. Some doses without a T/C left all or most animals alive at the check, yet need not have been tolerated: survival well below the control is almost never listed, so the zero probably covers shortened survival too. Survivors were counted at the toxicity check, usually on the fifth day, unless a day is given; later deaths do not show. Schedule codes are those of the source, read here as Q, the interval in days (D) or hours (H), X, the number of doses. For survival time, the PubChem record calls one and a half times the control and up active, and a quarter to a half above the control has no call in these data; cut-offs in other NCI protocols can differ.

`CN(C)CCC(=O)c1ccccc1`: the survivor count is, setting by setting: under setting [1], 0 of 6; under setting [2], 0 of 6.

Turning to `Cc1[nH]ccc2c(C)c3nc4ccccc4c3cc12`, the T/C is 145 % of control (dose: 2.06 mg/kg/injection, schedule: Q01DX009 (ip), vehicle: saline with Tween-80) and 145 % of control (dose: 16.5 mg/kg/injection, schedule: Q01DX009 (ip), vehicle: saline with Tween-80).

Turning to `CCCN1CCN(c2ccc([N+](=O)[O-])c3no[n+]([O-])c23)CC1`, the T/C (dose: 5.0 mg/kg/injection, schedule: Q01DX009 (ip), vehicle: saline with Tween-80) was 132 % of control.

With `CC(=O)CC(C)=O.CC(=O)CC(C)=O.CC(C)c1ncc[nH]1.O=N[O-].[Co]`, the T/C (dose: 400.0 mg/kg/injection, schedule: Q04DX002 (ip), vehicle: saline with Tween-80) was 125 % of control.

As to `CC[C@H]1CN2CCc3cc(OC)c(OC)cc3[C@@H]2C[C@@H]1C[C@H]1NCCc2c1[nH]c1ccc(OC)cc21`, the T/C (dose: 4.0 mg/kg/injection, schedule: Q04DX003 (ip), vehicle: saline) is 132 % of control; the T/C (dose: 8.0 mg/kg/injection, schedule: Q04DX003 (ip), vehicle: saline) was 145 % of control; the T/C (dose: 10.8 mg/kg/injection, schedule: Q04DX003 (ip), vehicle: acid diluted with saline) is 141 % of control. Also, the survivor count (dose: 50.0 mg/kg/injection, schedule: Q04DX003 (ip), vehicle: acid diluted with saline) is 6 of 8.

Consider `Cc1c2oc3c(C)c(N)cc(C(=O)NC4C(=O)NC(C(C)C)C(=O)N5CCCC5C(=O)N(C)CC(=O)N(C)C(C(C)C)C(=O)OC4C)c3nc-2c(C(=O)NC2C(=O)NC(C(C)C)C(=O)N3CCCC3C(=O)N(C)CC(=O)N(C)C(C(C)C)C(=O)OC2C)c(N)c1=O` (configuration not stated), for which the survivor count is listed as 8 of 8 (dose: 112.5 micrograms/kg/injection, schedule: Q01DX009 (ip), vehicle: saline + alcohol); 8 of 8 (dose: 150.0 micrograms/kg/injection, schedule: Q01DX009 (ip), vehicle: saline + alcohol); 8 of 8 (dose: 225.0 micrograms/kg/injection, schedule: Q01DX009 (ip), vehicle: saline + alcohol); 8 of 8 (dose: 300.0 micrograms/kg/injection, schedule: Q01DX009 (ip), vehicle: saline + alcohol); 8 of 8 (dose: 300.0 micrograms/kg/injection, schedule: Q04DX003 (ip), vehicle: saline + alcohol); 7 of 8 (dose: 600.0 micrograms/kg/injection, schedule: Q04DX003 (ip), vehicle: saline + alcohol). The survivor count (dose: 900.0 micrograms/kg/injection, schedule: Q04DX003 (ip), vehicle: saline + alcohol) is 5 of 8.

On to `CCCCCCCCCC(O)CCCCC` (configuration not stated), for which the survivor count (dose: 200.0 mg/kg/injection, schedule: Q01DX009 (ip), vehicle: saline with Tween-80) is 5 of 6; the survivor count (dose: 300.0 mg/kg/injection, schedule: Q01DX009 (ip), vehicle: saline with Tween-80) was 4 of 6; the survivor count (dose: 400.0 mg/kg/injection, schedule: Q01DX009 (ip), vehicle: saline) is reported as 3 of 6. Further, the T/C under setting [3] is 130 % of control.

With `Cn1cnc([N+](=O)[O-])c1[Se]c1ncnc2c1ccn2C1OC(CO)C(O)C1O` (configuration not stated), the survivor count is 3 of 6 under setting [1]; 2 of 6 under setting [2]; 1 of 6 under setting [3]; 0 of 6 (dose: 400.0 mg/kg/injection, schedule: Q04DX003 (ip), vehicle: saline).

Take `NNc1cccc(C(F)(F)F)c1`: the survivor count was 6 of 6 (dose: 12.5 mg/kg/injection, schedule: Q01DX009 (ip), vehicle: saline with Tween-80); 6 of 6 (dose: 25.0 mg/kg/injection, schedule: Q01DX009 (ip), vehicle: saline with Tween-80); 6 of 6 (dose: 50.0 mg/kg/injection, schedule: Q01DX009 (ip), vehicle: saline with Tween-80).

With `CC(C)(C)NCC(CNC(C)(C)C)C(=O)c1ccccc1`, the survivor count (dose: 100.0 mg/kg/injection, schedule: Q04DX003 (ip), vehicle: saline with Tween-80) was 0 of 6; the survivor count (dose: 200.0 mg/kg/injection, schedule: Q04DX003 (ip), vehicle: saline with Tween-80) is 0 of 6; the survivor count (dose: 400.0 mg/kg/injection, schedule: Q04DX003 (ip), vehicle: saline with Tween-80) is reported as 0 of 6.

As for `C/C=C(/Cl)c1c(C)cc(C)cc1C`, the survivor count (dose: 400.0 mg/kg/injection, schedule: Q01DX009 (ip), vehicle: saline with Tween-80) is on record as 6 of 6.
